The text below walks through data of article PMC4040925.

Amino acid sequences for entries named in this document (tags omitted). A change or cut given only in a name is not applied to a line headed by its entry. Chains listed by the source or under a name are the forms on record and can include a tag or linker.
UniProt P18206: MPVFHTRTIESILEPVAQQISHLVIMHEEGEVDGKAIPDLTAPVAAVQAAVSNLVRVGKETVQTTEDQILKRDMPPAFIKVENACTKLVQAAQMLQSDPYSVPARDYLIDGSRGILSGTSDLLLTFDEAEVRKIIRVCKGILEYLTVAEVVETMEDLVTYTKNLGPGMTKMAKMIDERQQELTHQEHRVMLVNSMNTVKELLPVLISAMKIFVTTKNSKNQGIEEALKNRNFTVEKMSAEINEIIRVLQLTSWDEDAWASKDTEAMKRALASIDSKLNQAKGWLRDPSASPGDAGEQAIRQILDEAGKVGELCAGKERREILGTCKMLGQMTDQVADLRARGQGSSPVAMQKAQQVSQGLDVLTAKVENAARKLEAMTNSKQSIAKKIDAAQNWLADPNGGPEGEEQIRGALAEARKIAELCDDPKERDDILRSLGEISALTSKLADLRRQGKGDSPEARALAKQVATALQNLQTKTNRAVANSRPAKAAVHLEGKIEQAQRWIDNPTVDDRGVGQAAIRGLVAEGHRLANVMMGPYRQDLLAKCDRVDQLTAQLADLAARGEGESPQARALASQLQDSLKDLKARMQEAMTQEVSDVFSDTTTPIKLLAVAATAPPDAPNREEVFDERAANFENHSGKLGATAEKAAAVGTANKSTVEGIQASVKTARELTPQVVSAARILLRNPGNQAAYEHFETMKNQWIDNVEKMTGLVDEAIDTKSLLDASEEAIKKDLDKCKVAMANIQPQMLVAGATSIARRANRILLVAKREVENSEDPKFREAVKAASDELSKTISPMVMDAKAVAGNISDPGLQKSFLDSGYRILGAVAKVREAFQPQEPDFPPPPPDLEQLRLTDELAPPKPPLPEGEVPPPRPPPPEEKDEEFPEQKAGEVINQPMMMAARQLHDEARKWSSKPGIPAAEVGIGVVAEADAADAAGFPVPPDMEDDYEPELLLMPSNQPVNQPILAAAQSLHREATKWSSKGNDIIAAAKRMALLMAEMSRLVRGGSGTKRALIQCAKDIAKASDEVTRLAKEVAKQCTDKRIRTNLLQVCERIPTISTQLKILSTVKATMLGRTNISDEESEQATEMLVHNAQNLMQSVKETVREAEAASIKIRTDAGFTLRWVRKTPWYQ
paxillin (P49023, form named): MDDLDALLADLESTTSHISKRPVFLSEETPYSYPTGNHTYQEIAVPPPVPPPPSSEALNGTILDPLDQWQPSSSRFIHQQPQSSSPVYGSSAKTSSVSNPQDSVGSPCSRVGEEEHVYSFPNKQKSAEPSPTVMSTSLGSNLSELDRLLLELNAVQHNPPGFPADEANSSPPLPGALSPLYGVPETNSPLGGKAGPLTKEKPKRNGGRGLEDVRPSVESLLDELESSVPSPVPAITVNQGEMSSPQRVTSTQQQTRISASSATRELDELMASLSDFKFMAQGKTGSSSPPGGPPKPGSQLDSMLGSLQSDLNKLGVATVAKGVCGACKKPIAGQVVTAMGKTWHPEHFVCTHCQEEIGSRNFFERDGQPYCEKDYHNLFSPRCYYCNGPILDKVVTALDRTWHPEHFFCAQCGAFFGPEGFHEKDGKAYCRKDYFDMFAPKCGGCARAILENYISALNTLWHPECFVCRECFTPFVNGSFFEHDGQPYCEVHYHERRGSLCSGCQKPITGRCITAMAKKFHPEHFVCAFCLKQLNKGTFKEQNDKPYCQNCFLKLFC
UniProt P50552: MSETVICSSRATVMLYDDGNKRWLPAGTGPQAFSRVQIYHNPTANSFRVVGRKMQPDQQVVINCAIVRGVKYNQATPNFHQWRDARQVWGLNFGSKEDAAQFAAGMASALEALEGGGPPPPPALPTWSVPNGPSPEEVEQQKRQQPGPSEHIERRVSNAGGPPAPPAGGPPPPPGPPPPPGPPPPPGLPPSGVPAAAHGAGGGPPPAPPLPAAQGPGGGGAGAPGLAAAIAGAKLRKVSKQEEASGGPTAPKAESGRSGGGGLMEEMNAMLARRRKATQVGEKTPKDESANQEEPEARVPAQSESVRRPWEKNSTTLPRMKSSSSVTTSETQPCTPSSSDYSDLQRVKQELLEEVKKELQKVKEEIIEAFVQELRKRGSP

The target of test [1] is vinculin (UniProt P18206). As to the kind of experiment: fluorescence cross-correlation spectroscopy (FCCS); cytosol of live REF52 cells co-expressing one protein tagged with meGFP and the other with TDmKate2; 37°C; association score against the negative control meGFP + TDmKate2 (Fisher's exact test, p-value <0.0001); apparent Ka.
Test [2] deals with paxillin (UniProt P49023). The description is as above.
Test [3] deals with paxillin (UniProt P49023). Kind of test: fluorescence cross-correlation spectroscopy (FCCS); cytosol of live NIH3T3 cells co-expressing one protein tagged with meGFP and the other with TDmKate2; 37°C; association score against the negative control (p-value <0.02).
Test [4] deals with α-actinin. Kind of test: fluorescence cross-correlation spectroscopy (FCCS); cytosol of live REF52 cells co-expressing one protein tagged with meGFP and the other with TDmKate2; 37°C; association score against the negative control meGFP + TDmKate2 (Fisher's exact test, p-value <0.0001); apparent Ka.

Results are given in words; binding and its absence hold for the method and conditions named. For some of these results: Binding can be weak; no strength is given.

For VASP (from UniProt P50552 1-380), in test [1], the binding entry is “binds”.

As for vinculin (from UniProt P18206-2), the binding entry in test [2] and in test [3] was “binds” in each case.

B1: zyxin (protein, UniProt Q15942 1-572)
chain: MAAPRPSPAISVSVSAPAFYAPQKKFGPVVAPKPKVNPFRPGDSEPPPAPGAQRAQMGRVGEIPPPPPEDFPLPPPPLAGDGDDAEGALGGAFPPPPPPIEESFPPAPLEEEIFPSPPPPPEEEGGPEAPIPPPPQPREKVSSIDLEIDSLSSLLDDMTKNDPFKARVSSGYVPPPVATPFSSKSSTKPAAGGTAPLPPWKSPSSSQPLPQVPAPAQSQTQFHVQPQPQPKPQVQLHVQSQTQPVSLANTQPRGPPASSPAPAPKFSPVTPKFTPVASKFSPGAPGGSGSQPNQKLGHPEALSAGTGSPQPPSFTYAQQREKPRVQEKQHPVPPPAQNQNQVRSPGAPGPLTLKEVEELEQLTQQLMQDMEHPQRQNVAVNELCGRCHQPLARAQPAVRALGQLFHIACFTCHQCAQQLQGQQFYSLEGAPYCEGCYTDTLEKCNTCGEPITDRMLRATGKAYHPHCFTCVVCARPLEGTSFIVDQANRPHCVPDYHKQYAPRCSVCSEPIMPEPGRDETVRVVALDKNFHMKCYKCEDCGKPLSIEADDNGCFPLDGHVLCRKCHTARAQT
For B1, the binding result in test [4] is listed as “no binding”.
